The values that follow come from PMC8871739.

The test concerns the target GhCesA7 (Gossypium hirsutum). As to the kind of experiment: two-hybrid; yeast strain Y2H-Gold; pGBKT7 and pGADT7 fusions; growth on SD/-Trp/-Leu (DDO), then on SD/-Trp/-His/-Ade/-Leu (QDO) with X-α-GAL/ABA, 30 °C, 3-5 days.

These are yes or no findings as the source states them, for the method shown. Binding can be weak; no strength is given.

B1: GhMCesA35 (enzyme, UniProt P93155 1-974)
chain: MMESGVPVCHTCGEHVGLNVNGEPFVACHECNFPICKSCFEYDLKEGRKACLRCGSPYDENLLDDVEKATGDQSTMAAHLNKSQDVGIHARHISSVSTLDSEMAEDNGNSIWKNRVESWKEKKNKKKKPATTKVEREAEIPPEQQMEDKPAPDASQPLSTIIPIPKSRLAPYRTVIIMRLIILGLFFHYRVTNPVDSAFGLWLTSVICEIWFAFSWVLDQFPKWYPVNRETYIDRLSARYEREGEPDELAAVDFFVSTVDPLKEPPLITANTVLSILALDYPVDKVSCYISDDGAAMLTFESLVETADFARKWVPFCKKFSIEPRAPEFYFSQKIDYLKDKVQPSFVKERRAMKRDYEEYKIRINALVAKAQKTPDEGWTMQDGTSWPGNNPRDHPGMIQVFLGYSGARDIEGNELPRLVYVSREKRPGYQHHKKAGAENALVRVSAVLTNAPFILNLDCDHYVNNSKAVREAMCFLMDPQVGRDVCYVQFPQRFDGIDRSDRYANRNTVFFDVNMKGLDGIQGPVYVGTGCVFNRQALYGYGPPSMPSFPKSSSSSCSCCCPGKKEPKDPSELYRDAKREELDAAIFNLREIDNYDEYERSMLISQTSFEKTFGLSSVFIESTLMENGGVAESANPSTLIKEAIHVISCGYEEKTAWGKEIGWIYGSVTEDILTGFKMHCRGWRSIYCMPLRPAFKGSAPINLSDRLHQVLRWALGSVEIFLSRHCPLWYGFGGGRLKWLQRLAYINTIVYPFTSLPLIAYCSLPAICLLTGKFIIPTLSNLASVLFLGLFLSIIVTAVLELRWSGVSIEDLWRNEQFWVIGGVSAHLFAVFQGFLKMLAGIDTNFTVTAKAADDADFGELYIVKWTTLLIPPTTLLIVNMVGVVAGFSDALNKGYEAWGPLFGKVFFSFWVILHLYPFLKGLMGRQNRTPTIVVLWSVLLASVFSLVWVRINPFVSTADSTTVSQSCISIDC
In the case of B1, the binding result is given as “binds”.
